This note sets out measurements from PubChem BioAssay AID212 (DTP/NCI, 2004).

The experiment concerns BDF1 mice, colon carcinoma 38 sc, T/C %. As to the kind of experiment: NCI In Vivo Anticancer Drug Screen. Data for tumor model Colon Carcinoma 38 (subcutaneous) in B6D2F1 (BDF1) mice. An outline of the steps:
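Mice with transplanted tumors are treated with compound or vehicle. Survival or tumor size is then measured in both groups. The ratio of treated to control gives the reported figure.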

Where [1] appears, read: T/C endpoint: median tumor weight (est.), dose: 3.12 mg/kg/injection, schedule: Q07DX002 (ip), vehicle: saline with Tween-80, evaluated on day 20, higher T/C = larger tumour.
Setting [2] is: T/C endpoint: median tumor weight (est.), dose: 100.0 mg/kg/injection, schedule: Q07DX002 (ip), vehicle: saline with Tween-80, higher T/C = larger tumour.
Where [3] appears, read: T/C endpoint: median tumor weight (est.), dose: 100.0 mg/kg/injection, schedule: Q07DX002 (ip), vehicle: saline, higher T/C = larger tumour.
The mark [4] stands for this setting: T/C endpoint: median tumor weight (est.), dose: 50.0 mg/kg/injection, schedule: Q07DX002 (ip), vehicle: saline with Tween-80, evaluated on day 20, higher T/C = larger tumour.
Where [5] appears, read: T/C endpoint: median tumor weight (est.), dose: 25.0 mg/kg/injection, schedule: Q07DX002 (ip), vehicle: saline, evaluated on day 20, higher T/C = larger tumour.

The list does not hold the whole screen: it is rich in T/C values a quarter to a half above the control, in often repeated tests (any T/C) and in doses without a T/C. Further doses and runs are listed elsewhere. T/C gives the treated animals as a percentage of the vehicle group. Schedules are NCI's codes, read here as Q, the interval in days (D) or hours (H), X, the number of doses. Some structures stand for samples that the source files as different forms (salt, stereo form or complex); doses refer to the form tested. Some entries were tested several times; their values stand side by side, smallest first. Some T/C values are followed by the survivors on the day toxicity was checked, most often the fifth; without a count, all were alive then. Some entries give survivors of the animals treated and no T/C: the source files T/C as zero there, which appears to mark a toxic dose or a test without result, not a measured value. Some survivor counts are full or nearly so, which does not show that the dose was tolerated: survival well below the control is almost never listed, so the zero probably covers shortened survival too. Counts of survivors are from the toxicity check (mostly the fifth day) where no day follows; animals may have died later. For survival time, the PubChem record calls one and a half times the control and up active, and a quarter to a half above the control has no call in these data; cut-offs in other NCI protocols can differ.

`O=C1c2c(O)ccc(O)c2C(=O)c2c(NCCNCCO)ccc(NCCNCCO)c21`: the T/C was 128 % of control (T/C endpoint: median survival time, dose: 1.4 mg/kg/injection, schedule: Q07DX004 (iv), vehicle: water, higher T/C = longer survival); 128 % of control (T/C endpoint: median survival time, dose: 2.0 mg/kg/injection, schedule: Q04DX004 (ip), vehicle: acid diluted with saline, higher T/C = longer survival); 70, 82, 84, 108 % of control (T/C endpoint: median tumor weight (est.), dose: 1.0 mg/kg/injection, schedule: Q07DX002 (ip), vehicle: water, evaluated on day 20, higher T/C = larger tumour); 142 % of control [9 of 10 alive] (T/C endpoint: median tumor weight (est.), dose: 1.5 mg/kg/injection, schedule: Q07DX003 (ip), vehicle: saline with Tween-80, evaluated on day 20, higher T/C = larger tumour); 64, 83, 91, 103 % of control (T/C endpoint: median tumor weight (est.), dose: 2.0 mg/kg/injection, schedule: Q07DX002 (ip), vehicle: water, evaluated on day 20, higher T/C = larger tumour); 139 [9 of 10 alive] and 141 % of control [9 of 10 alive] (T/C endpoint: median tumor weight (est.), dose: 3.0 mg/kg/injection, schedule: Q07DX003 (ip), vehicle: saline with Tween-80, evaluated on day 20, higher T/C = larger tumour). In addition, the T/C (T/C endpoint: median tumor weight (est.), dose: 4.0 mg/kg/injection, schedule: Q07DX002 (ip), vehicle: water, evaluated on day 20, higher T/C = larger tumour) is listed as 10, 20, 41 % of control. Moreover, the survivor count is 10 of 10 (T/C endpoint: median survival time, dose: 8.0 mg/kg/injection, schedule: Q04DX004 (ip), vehicle: acid diluted with saline, higher T/C = longer survival); 0 of 10 on day 20 (T/C endpoint: median tumor weight (est.), dose: 4.0 mg/kg/injection, schedule: Q07DX002 (ip), vehicle: water, higher T/C = larger tumour); 0 of 10 on day 20 and 2 of 10 on day 20 (T/C endpoint: median tumor weight (est.), dose: 8.0 mg/kg/injection, schedule: Q07DX002 (ip), vehicle: water, higher T/C = larger tumour); 0 of 10 on day 20, 1 of 10 on day 20, 2 of 10 on day 20, 3 of 10 on day 20 (T/C endpoint: median tumor weight (est.), dose: 16.0 mg/kg/injection, schedule: Q07DX002 (ip), vehicle: water, higher T/C = larger tumour).
`COc1cc2cc(c1Cl)N(C)C(=O)CC(OC(=O)CC(C)C)C1(C)OC1C(C)C1CC(O)(NC(=O)O1)C(OC)/C=C/C=C(C)C2` (stereo not given): the T/C was 149 % of control (T/C endpoint: median tumor weight (est.), dose: 12.5 micrograms/kg/injection, schedule: Q07DX003 (ip), vehicle: saline + alcohol, evaluated on day 20, higher T/C = larger tumour) and 141 % of control [8 of 10 alive] (T/C endpoint: median tumor weight (est.), dose: 50.0 micrograms/kg/injection, schedule: Q07DX003 (ip), vehicle: saline + alcohol, evaluated on day 20, higher T/C = larger tumour).
Regarding `CCOC(=O)CC(SP(=S)(OC)OC)C(=O)OCC` (stereo not given), the survivor count (T/C endpoint: median tumor weight (est.), dose: 800.0 mg/kg/injection, schedule: Q07DX002 (ip), vehicle: suspension in saline, higher T/C = larger tumour) is 3 of 10 on day 20.
In the case of `CCCCCCCCCCCCCCC/C([O-])=N/[N+](C)(C)CC(C)O` (stereo not given), the T/C runs as follows: (T/C endpoint: median tumor weight (est.), dose: 50.0 mg/kg/injection, schedule: Q01DX001 (ip), vehicle: saline, evaluated on day 20, higher T/C = larger tumour) 140 % of control [8 of 10 alive on day 20]; (T/C endpoint: median tumor weight (est.), dose: 100.0 mg/kg/injection, schedule: Q01DX001 (ip), vehicle: saline, evaluated on day 20, higher T/C = larger tumour) 148 % of control [8 of 10 alive on day 20]. Moreover, under “T/C endpoint: median tumor weight (est.), dose: 800.0 mg/kg/injection, schedule: Q01DX001 (ip), vehicle: saline, higher T/C = larger tumour”, the survivor count is reported as 3 of 10 on day 20.
On to `O=C1C(NCCO)=C(N2CC2)C(=O)C(NCCO)=C1N1CC1`, for which the T/C (T/C endpoint: median tumor weight (est.), dose: 0.25 mg/kg/injection, schedule: Q07DX002 (ip), vehicle: saline, evaluated on day 20, higher T/C = larger tumour) is 142 % of control [9 of 10 alive on day 20]. In addition, the survivor count reads like this: (T/C endpoint: median tumor weight (est.), dose: 2.0 mg/kg/injection, schedule: Q07DX002 (ip), vehicle: saline, higher T/C = larger tumour) 0 of 10 on day 20 and 5 of 10 on day 20; (T/C endpoint: median tumor weight (est.), dose: 4.0 mg/kg/injection, schedule: Q07DX002 (ip), vehicle: saline, higher T/C = larger tumour) 0 of 10 on day 20.
For `O=C(Nc1ccc(C2=NCCN2)cc1)c1ccc(C(=O)Nc2ccc(C3=NCCN3)cc2)c(Cl)c1`, the T/C was 126 % of control under setting [1] and 129 % of control (T/C endpoint: median tumor weight (est.), dose: 25.0 mg/kg/injection, schedule: Q07DX002 (ip), vehicle: saline with Tween-80, evaluated on day 20, higher T/C = larger tumour). Also, the survivor count under setting [2] is recorded as 1 of 10 on day 20.
Turning to `Cc1cnc(/C=N\NC(N)=S)c2cccc(N)c12`, the T/C by setting is: under setting [1], 133 % of control; (T/C endpoint: median tumor weight (est.), dose: 3.12 mg/kg/injection, schedule: Q07DX003 (ip), vehicle: saline with Tween-80, evaluated on day 20, higher T/C = larger tumour) 139 % of control; (T/C endpoint: median tumor weight (est.), dose: 12.5 mg/kg/injection, schedule: Q07DX002 (ip), vehicle: saline with Tween-80, evaluated on day 20, higher T/C = larger tumour) 133 % of control; (T/C endpoint: median tumor weight (est.), dose: 100.0 mg/kg/injection, schedule: Q07DX002 (ip), vehicle: saline with Tween-80, evaluated on day 20, higher T/C = larger tumour) 132 % of control. Also, the survivor count is recorded as 4 of 10 under setting [2] and 2 of 10 (T/C endpoint: median tumor weight (est.), dose: 100.0 mg/kg/injection, schedule: Q07DX003 (ip), vehicle: saline with Tween-80, higher T/C = larger tumour).
Consider `CSC(SC)=C1C(=O)NC(=O)NC1=O`, for which the survivor count under setting [3] is given as 6 of 10 on day 20.
For `C=C(OC1C(C)=C2C(C1OC(=O)CCCCCCC)C(C)(OC(C)=O)CC(OC(=O)CCC)C1(O)C2OC(=O)C1(C)O)/C(C)=C/C` (stereo not given), the T/C (T/C endpoint: median tumor weight (est.), dose: 1.68 mg/kg/injection, schedule: Q07DX002 (ip), vehicle: Klucel (hydroxypropylcellulose) (HPC), evaluated on day 20, higher T/C = larger tumour) was 6, 100, 117 [9 of 10 alive], 184 % of control.
On to `CC[C@H](CC[C@@H](C)C1CC[C@H]2[C@@H]3CC=C4C[C@@H](OP(=O)(N5CC5)N5CC5)CC[C@]4(C)[C@H]3CC[C@]12C)C(C)C` (stereo not given in full), for which the T/C is, setting by setting: under setting [4], 125 % of control; (T/C endpoint: median tumor weight (est.), dose: 200.0 mg/kg/injection, schedule: Q07DX002 (ip), vehicle: saline with Tween-80, evaluated on day 20, higher T/C = larger tumour) 144 % of control; (T/C endpoint: median tumor weight (est.), dose: 400.0 mg/kg/injection, schedule: Q07DX002 (ip), vehicle: saline with Tween-80, evaluated on day 20, higher T/C = larger tumour) 147 % of control.
Consider `CNC(=O)OCc1c(COC(=O)NC)c(-c2ccccc2)n(C)c1-c1ccccc1`, for which the survivor count (T/C endpoint: median tumor weight (est.), dose: 100.0 mg/kg/injection, schedule: Q07DX002 (ip), vehicle: distilled water + Tween-80, higher T/C = larger tumour) is on record as 2 of 10 on day 20 and the survivor count (T/C endpoint: median tumor weight (est.), dose: 200.0 mg/kg/injection, schedule: Q07DX002 (ip), vehicle: distilled water + Tween-80, higher T/C = larger tumour) is listed as 0 of 10 on day 20.
Consider `CC1(C)OC(=O)N(CO)C1=O`, for which the T/C runs as follows: (T/C endpoint: median tumor weight (est.), dose: 12.5 mg/kg/injection, schedule: Q07DX002 (ip), vehicle: saline, evaluated on day 20, higher T/C = larger tumour) 130 % of control; under setting [5], 140 % of control.
Take `Cc1cc(N(CC(C)Br)CC(C)Br)ccc1N=Nc1ccccc1C(=O)O` (stereo not given): under “T/C endpoint: median tumor weight (est.), dose: 6.25 mg/kg/injection, schedule: Q07DX002 (ip), vehicle: saline with Tween-80, evaluated on day 20, higher T/C = larger tumour”, the T/C was 137 % of control.
In the case of `Nc1ncnc2c1ccn2C1OC(CO)C(O)C1O` (stereo not given), the survivor count (T/C endpoint: median tumor weight (est.), dose: 8.0 mg/kg/injection, schedule: Q07DX003 (ip), vehicle: Klucel (hydroxypropylcellulose) (HPC), higher T/C = larger tumour) is 2 of 10 and 5 of 10.
With `COC1/C=C\C=C(/C)C(=O)NC2=CC(=O)C=C(C2=O)C(OC)C(C)CC(OC)C(OC)C(C)/C=C(/C)C1OC(N)=O` (stereo not given), the T/C by setting is: (T/C endpoint: median tumor weight (est.), dose: 0.37 mg/kg/injection, schedule: Q07DX002 (ip), vehicle: Klucel (hydroxypropylcellulose) (HPC), evaluated on day 20, higher T/C = larger tumour) 129 % of control; (T/C endpoint: median tumor weight (est.), dose: 0.75 mg/kg/injection, schedule: Q07DX002 (ip), vehicle: Klucel (hydroxypropylcellulose) (HPC), evaluated on day 20, higher T/C = larger tumour) 130 % of control; (T/C endpoint: median tumor weight (est.), dose: 3.0 mg/kg/injection, schedule: Q07DX002 (ip), vehicle: Klucel (hydroxypropylcellulose) (HPC), evaluated on day 20, higher T/C = larger tumour) 142 % of control.
For the compound `NNC(=O)c1ccncc1`, where the note is “T/C endpoint: median tumor weight (est.), dose: 144.0 mg/kg/injection, schedule: Q07DX002 (ip), vehicle: saline, evaluated on day 20, higher T/C = larger tumour”, the T/C is 128 % of control. Also, under “T/C endpoint: median tumor weight (est.), dose: 288.0 mg/kg/injection, schedule: Q07DX002 (ip), vehicle: saline, higher T/C = larger tumour”, the survivor count was 4 of 10 on day 20.
`NC(=O)c1ncn2c(=O)n(CCCl)nnc12`: the survivor count is 0 of 10 on day 20, 1 of 10 on day 20, 4 of 10 on day 20 (T/C endpoint: median tumor weight (est.), dose: 100.0 mg/kg/injection, schedule: Q07DX002 (ip), vehicle: Klucel (hydroxypropylcellulose) (HPC), higher T/C = larger tumour); 4 of 10 on day 20 and 6 of 10 on day 20 under setting [3].
Consider `O=C(CO)c1ccc([N+](=O)[O-])cc1`, for which the T/C under setting [4] was 143 % of control.
Regarding `OCCOCCN1CCN(CCCN2c3ccccc3Sc3ccc(C(F)(F)F)cc32)CC1`, the T/C is 143 % of control (T/C endpoint: median tumor weight (est.), dose: 6.25 mg/kg/injection, schedule: Q07DX002 (ip), vehicle: saline, evaluated on day 20, higher T/C = larger tumour) and 135 % of control under setting [5].
